In the M2OR odorant receptor database:
The entries are a selection whose mix differs from that of the whole data set. Calls are pooled over several reports, among them a noisy single-well screen. The list shows a part of the results.

How the values were obtained:
Settings in all cases: stereoisomer not certain
OR6K2 (Homo sapiens) = target: T1, OR6K2 (Homo sapiens) (UniProt Q8NGY2)
T1 sequence (whole entry): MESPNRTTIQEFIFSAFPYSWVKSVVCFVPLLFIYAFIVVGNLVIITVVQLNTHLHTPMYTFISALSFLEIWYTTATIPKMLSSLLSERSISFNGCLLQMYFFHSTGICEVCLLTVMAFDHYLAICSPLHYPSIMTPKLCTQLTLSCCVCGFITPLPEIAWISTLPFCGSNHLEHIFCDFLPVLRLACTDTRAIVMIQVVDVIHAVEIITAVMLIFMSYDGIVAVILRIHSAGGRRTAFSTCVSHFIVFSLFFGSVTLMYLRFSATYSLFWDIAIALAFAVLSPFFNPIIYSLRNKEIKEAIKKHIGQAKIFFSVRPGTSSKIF
In short: (§1)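 Each receptor–molecule pair is labelled responsive or non-responsive (inactive) according to whether the original authors judged the measured signal statistically different from baseline. The data were taken from the main text and supplementary material of published papers and checked for typos and inconsistencies. Assay methods differed by source, with transient luciferase assays in mammalian cell lines being common.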

OR6K3 [1] = test system: T2, OR6K3
T2 sequence (whole entry): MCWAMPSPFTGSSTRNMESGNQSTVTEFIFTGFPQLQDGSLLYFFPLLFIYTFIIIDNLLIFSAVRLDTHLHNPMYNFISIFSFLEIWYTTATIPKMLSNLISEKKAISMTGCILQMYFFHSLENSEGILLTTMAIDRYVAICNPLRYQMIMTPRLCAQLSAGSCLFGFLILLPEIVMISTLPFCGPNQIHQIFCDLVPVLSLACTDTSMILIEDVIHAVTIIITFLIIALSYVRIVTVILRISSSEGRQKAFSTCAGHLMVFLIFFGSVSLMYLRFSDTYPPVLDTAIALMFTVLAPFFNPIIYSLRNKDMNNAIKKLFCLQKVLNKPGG
In short: as §1

OR6K3 [2] = test system: T3, OR6K3; remark: listed apart in the source
T3 sequence (whole entry): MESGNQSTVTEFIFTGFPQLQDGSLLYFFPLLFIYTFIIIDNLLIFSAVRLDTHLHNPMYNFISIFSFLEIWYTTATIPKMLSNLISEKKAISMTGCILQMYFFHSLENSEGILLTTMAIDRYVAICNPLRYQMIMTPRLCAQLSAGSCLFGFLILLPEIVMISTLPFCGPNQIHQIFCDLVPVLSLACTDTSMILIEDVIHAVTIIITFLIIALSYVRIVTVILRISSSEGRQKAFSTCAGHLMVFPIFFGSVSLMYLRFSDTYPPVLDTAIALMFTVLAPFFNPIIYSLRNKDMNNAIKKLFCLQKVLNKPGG
In short: as §1

OR6K6 [3] = test system: T4, OR6K6
T4 sequence (whole entry): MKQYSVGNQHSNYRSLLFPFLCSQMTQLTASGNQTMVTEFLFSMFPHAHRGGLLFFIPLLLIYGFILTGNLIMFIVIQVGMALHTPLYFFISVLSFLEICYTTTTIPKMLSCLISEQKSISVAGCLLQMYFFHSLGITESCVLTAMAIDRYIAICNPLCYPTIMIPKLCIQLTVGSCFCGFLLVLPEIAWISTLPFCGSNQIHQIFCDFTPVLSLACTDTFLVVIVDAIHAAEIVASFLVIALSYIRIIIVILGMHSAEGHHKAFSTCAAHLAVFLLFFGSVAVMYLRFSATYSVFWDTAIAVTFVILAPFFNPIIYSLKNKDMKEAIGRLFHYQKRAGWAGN
In short: as §1

OR6K6 [4] = test system: T5, OR6K6; remark: listed apart in the source
T5 sequence (whole entry): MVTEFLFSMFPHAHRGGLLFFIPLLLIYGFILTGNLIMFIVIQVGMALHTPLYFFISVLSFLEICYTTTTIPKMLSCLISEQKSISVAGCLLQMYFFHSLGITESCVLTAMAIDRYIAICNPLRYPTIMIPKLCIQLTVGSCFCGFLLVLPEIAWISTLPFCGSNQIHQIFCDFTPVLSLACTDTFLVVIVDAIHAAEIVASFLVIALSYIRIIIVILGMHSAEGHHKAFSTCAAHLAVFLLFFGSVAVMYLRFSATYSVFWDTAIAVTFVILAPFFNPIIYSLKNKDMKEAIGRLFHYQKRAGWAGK
In short: as §1

OR6M1 (Homo sapiens) = target: T6, OR6M1 (Homo sapiens) (UniProt Q8NGM8)
T6 sequence (whole entry): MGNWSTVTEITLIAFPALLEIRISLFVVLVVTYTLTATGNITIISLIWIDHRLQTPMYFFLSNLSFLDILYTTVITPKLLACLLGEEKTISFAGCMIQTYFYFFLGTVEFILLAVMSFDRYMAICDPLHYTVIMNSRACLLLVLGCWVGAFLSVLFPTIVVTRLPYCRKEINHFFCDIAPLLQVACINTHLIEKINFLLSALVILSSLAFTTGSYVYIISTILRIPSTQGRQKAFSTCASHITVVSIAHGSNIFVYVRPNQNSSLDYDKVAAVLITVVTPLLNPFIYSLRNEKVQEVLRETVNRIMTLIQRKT
In short: as §1

OR6N1 = test system: T7, OR6N1
T7 sequence (whole entry): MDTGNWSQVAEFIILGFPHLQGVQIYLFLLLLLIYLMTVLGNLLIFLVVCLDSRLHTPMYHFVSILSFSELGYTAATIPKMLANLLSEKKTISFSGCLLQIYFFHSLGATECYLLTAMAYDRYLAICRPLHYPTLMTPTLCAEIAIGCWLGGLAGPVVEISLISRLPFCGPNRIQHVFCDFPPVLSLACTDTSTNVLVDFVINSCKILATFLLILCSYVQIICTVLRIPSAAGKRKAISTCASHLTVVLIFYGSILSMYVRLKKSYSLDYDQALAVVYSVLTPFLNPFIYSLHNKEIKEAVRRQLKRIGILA
In short: as §1

OR6N2 (Homo sapiens) = target: T8, OR6N2 (Homo sapiens) (UniProt Q8NGY6)
T8 sequence (whole entry): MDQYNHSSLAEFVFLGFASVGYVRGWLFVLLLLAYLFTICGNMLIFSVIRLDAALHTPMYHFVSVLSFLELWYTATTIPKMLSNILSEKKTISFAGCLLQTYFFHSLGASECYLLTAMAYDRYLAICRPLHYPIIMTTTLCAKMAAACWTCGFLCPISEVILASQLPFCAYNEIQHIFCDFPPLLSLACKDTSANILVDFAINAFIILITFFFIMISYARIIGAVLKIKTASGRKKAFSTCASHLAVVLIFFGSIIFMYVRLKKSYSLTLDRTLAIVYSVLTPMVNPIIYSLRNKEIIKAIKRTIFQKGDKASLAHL
In short: as §1

OR6P1 (Homo sapiens) = target: T9, OR6P1 (Homo sapiens) (UniProt Q8NGX9)
T9 sequence (whole entry): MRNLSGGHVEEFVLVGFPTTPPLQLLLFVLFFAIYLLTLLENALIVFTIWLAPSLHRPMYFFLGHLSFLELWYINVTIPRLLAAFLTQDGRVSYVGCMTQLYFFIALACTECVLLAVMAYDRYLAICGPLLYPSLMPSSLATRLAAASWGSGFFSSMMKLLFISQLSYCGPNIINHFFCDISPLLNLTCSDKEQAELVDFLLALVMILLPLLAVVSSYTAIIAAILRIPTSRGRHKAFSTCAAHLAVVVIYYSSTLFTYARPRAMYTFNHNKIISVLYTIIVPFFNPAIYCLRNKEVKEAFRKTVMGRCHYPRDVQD
In short: as §1

OR6S1 = test system: T10, OR6S1
T10 sequence (whole entry): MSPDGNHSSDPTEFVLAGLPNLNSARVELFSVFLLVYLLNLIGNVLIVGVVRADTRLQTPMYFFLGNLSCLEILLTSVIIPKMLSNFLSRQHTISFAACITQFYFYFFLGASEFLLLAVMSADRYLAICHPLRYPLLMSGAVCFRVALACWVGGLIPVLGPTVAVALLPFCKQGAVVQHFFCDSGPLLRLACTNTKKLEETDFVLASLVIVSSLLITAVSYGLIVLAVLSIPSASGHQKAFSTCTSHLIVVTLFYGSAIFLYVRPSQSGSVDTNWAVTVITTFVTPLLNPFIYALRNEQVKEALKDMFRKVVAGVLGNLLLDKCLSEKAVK
In short: as §1

OR6T1 = test system: T11, OR6T1
T11 sequence (whole entry): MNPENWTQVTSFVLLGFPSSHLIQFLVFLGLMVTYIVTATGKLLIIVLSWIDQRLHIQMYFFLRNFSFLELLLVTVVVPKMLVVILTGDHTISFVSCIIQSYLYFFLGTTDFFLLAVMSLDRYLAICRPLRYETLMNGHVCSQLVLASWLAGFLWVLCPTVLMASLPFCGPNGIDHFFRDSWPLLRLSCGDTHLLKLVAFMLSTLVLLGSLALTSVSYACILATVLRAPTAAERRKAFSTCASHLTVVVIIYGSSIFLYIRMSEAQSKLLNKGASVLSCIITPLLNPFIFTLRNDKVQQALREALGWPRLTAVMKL
In short: as §1

OR6J1 = test system: T12, OR6J1
T12 sequence (whole entry): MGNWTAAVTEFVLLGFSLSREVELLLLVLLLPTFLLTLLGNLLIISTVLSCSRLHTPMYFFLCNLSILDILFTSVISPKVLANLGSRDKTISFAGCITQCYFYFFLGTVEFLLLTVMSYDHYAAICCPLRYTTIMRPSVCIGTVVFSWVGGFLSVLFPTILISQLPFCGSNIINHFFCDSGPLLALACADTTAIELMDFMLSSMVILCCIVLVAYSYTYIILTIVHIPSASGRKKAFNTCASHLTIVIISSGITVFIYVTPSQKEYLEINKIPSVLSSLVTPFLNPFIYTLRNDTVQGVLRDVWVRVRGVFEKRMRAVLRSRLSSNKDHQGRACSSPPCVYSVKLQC
In short: as §1

OR6Q1 (Homo sapiens) = target: T13, OR6Q1 (Homo sapiens) (UniProt Q8NGQ2)
T13 sequence (whole entry): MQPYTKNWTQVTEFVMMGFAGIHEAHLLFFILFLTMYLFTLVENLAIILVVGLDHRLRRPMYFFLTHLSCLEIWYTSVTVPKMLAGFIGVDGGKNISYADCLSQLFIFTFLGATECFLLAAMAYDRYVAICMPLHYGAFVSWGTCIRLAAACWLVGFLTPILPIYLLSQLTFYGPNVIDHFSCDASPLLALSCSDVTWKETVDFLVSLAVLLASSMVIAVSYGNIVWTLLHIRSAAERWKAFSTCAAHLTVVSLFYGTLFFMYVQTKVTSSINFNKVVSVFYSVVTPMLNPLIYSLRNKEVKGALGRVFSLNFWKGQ
In short: as §1
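Further: active if original authors judged signal statistically different from baseline.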

Row | Compound | odorant receptor agonist call (OR6K2 (Homo sapiens)) | odorant receptor agonist call (OR6K3 [1]) | odorant receptor agonist call (OR6K3 [2]) | odorant receptor agonist call (OR6K6 [3]) | odorant receptor agonist call (OR6K6 [4]) | odorant receptor agonist call (OR6M1 (Homo sapiens)) | odorant receptor agonist call (OR6N1) | odorant receptor agonist call (OR6N2 (Homo sapiens)) | odorant receptor agonist call (OR6P1 (Homo sapiens)) | odorant receptor agonist call (OR6S1) | odorant receptor agonist call (OR6T1) | odorant receptor agonist call (OR6J1) | odorant receptor agonist call (OR6Q1 (Homo sapiens))
1 | COC(=O)c1ccccc1 | inactive | inactive | inactive | inactive | inactive | inactive | inactive | inactive | active | inactive | inactive |  | 
2 | CC1=NC(C)SC1C (stereo not drawn) | inactive | inactive | inactive | inactive | inactive | inactive | inactive | inactive | inactive | inactive | inactive |  | 
3 | O=C1CCCCC1 | inactive | inactive | inactive | inactive | inactive | inactive | inactive | inactive | inactive | inactive | inactive |  | 
4 | CCC1(O)C2(C)CCC(C2)C1(C)C (stereo not drawn) | inactive | inactive | inactive | inactive | inactive | inactive | inactive | inactive | inactive | inactive | inactive | inactive | inactive
5 | CC12CCC(C1)C(C)(C)C2=O (stereo not drawn) | inactive | inactive | inactive | inactive | inactive | inactive | inactive | inactive | inactive | inactive | inactive | inactive | inactive
6 | CC12C=CCC1C1CCC3=CC(=O)CCC3(C)C1CC2 (stereo not drawn) | inactive | inactive | inactive | inactive | inactive | inactive | inactive | inactive | inactive | inactive | inactive | inactive | inactive
7 | CC(=O)c1ccccc1 | inactive | inactive | inactive | inactive | inactive | inactive | inactive | inactive | inactive | active | inactive |  | 
